PubChem BioAssay AID1259254, NCATS – 2017
Screen: 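Finding genes that stop cells copying their DNA twice in one cycle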 (primary screen). Cell system: human HCT116 colorectal cancer cells. Knock-down reagent: single siRNA against human genes. Timing: 3 days. Detection: 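Nuclei stained with Hoechst and imaged; cell-cycle phase assigned by DNA content; G2 share scaled per plate, non-targeting siRNA 0%, GMNN siRNA 100%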. Direction: G2 robust z-score: higher = more G2 cells, more excess DNA replication. Active means: 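Active siRNAs have a G2 robust z of 5 or more median absolute deviations over the median, which in these data means about 38% or higher of GMNN control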.
Here is one part, drawn at random, of about 59,000 deposited reagents. In the full data, about 1,550 (2.6%) were called active. 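G2 share is only a proxy for re-replication; each gene was hit by three separate siRNAs, and active genes were retested.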 The numbers tell different reagents against one gene apart. Further read-outs or replicates are left out here. Not stated in the record: the amount of reagent.

GAB2 (GeneID 9846) #1 scored G2 robust z-score -0.798; inactive. Against GAB2 (GeneID 9846) #2, the values are G2 robust z-score -0.926; inactive. GAB2 (GeneID 9846) #3 scored G2 robust z-score -0.481; inactive. With knock-down of CRELD1 (GeneID 78987) #1, the record shows G2 robust z-score 0.322; inactive. Knock-down of CRELD1 (GeneID 78987) #2 came out at: G2 robust z-score -0.114; inactive. CRELD1 (GeneID 78987) #3 gave G2 robust z-score 0.199; inactive.

After knock-down of MCM2 (GeneID 4171) #1 the results were G2 robust z-score -0.401; inactive. With knock-down of MCM2 (GeneID 4171) #2 the results were G2 robust z-score 0.697; inactive. MCM2 (GeneID 4171) #3 gave G2 robust z-score 1.1; inactive. Depletion of RWDD3 (GeneID 25950) #1 gave: G2 robust z-score 1.82; inactive. RWDD3 (GeneID 25950) #2 gave G2 robust z-score -0.703; inactive. Silencing of RWDD3 (GeneID 25950) #3 came out at: G2 robust z-score 0.406; inactive.

Records listed so far whose target name starts with M or m:
MCM2 (GeneID 4171) #1: G2 robust z-score = -0.401; Call = inactive
MCM2 (GeneID 4171) #2: G2 robust z-score = 0.697; Call = inactive
MCM2 (GeneID 4171) #3: G2 robust z-score = 1.1; Call = inactive
